No constants are given. Whether binding was seen depends on the method and setting. In cells and extracts the contact can be indirect. Some binding calls cover weakened binding; strength is not graded here.

By UniProt entry, the sequences of proteins in these tests, tags left out. Residues count along the entry.
UniProt P16056, residues 25-1379: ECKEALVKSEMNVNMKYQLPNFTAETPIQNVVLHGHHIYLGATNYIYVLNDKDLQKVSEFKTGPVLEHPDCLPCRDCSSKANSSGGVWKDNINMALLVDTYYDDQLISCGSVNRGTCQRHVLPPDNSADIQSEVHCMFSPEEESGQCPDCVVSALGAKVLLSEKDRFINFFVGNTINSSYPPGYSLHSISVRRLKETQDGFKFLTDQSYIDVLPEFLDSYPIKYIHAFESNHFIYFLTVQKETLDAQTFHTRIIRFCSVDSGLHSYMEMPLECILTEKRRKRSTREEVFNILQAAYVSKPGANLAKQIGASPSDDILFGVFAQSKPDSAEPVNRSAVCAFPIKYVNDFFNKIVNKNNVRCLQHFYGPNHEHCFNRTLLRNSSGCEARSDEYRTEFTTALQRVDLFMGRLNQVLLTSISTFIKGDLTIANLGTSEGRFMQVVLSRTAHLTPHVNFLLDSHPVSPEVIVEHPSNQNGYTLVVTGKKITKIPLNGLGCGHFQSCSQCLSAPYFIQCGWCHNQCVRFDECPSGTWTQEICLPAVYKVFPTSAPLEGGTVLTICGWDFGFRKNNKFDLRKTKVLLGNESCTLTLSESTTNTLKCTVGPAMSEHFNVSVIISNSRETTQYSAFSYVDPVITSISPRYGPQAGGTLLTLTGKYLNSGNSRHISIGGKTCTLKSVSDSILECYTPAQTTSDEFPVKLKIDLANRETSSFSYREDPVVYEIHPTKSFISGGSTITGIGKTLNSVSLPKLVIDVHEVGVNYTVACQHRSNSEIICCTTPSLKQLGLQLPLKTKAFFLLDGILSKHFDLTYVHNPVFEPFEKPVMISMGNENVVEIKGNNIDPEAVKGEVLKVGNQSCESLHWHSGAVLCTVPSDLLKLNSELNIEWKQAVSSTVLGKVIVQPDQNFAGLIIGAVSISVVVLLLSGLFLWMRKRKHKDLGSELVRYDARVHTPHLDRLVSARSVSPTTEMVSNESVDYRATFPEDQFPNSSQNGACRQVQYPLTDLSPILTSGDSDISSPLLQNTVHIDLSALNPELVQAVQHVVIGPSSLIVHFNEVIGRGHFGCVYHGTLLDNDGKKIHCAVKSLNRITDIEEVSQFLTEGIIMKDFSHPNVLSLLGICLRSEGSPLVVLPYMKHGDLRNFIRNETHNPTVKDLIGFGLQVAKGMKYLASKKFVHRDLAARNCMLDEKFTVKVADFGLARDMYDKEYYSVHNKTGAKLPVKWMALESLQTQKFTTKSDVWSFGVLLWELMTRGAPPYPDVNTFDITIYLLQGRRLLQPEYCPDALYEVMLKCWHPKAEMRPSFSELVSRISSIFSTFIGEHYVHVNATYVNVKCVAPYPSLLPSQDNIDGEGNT
UniProt P09055, residues 21-798: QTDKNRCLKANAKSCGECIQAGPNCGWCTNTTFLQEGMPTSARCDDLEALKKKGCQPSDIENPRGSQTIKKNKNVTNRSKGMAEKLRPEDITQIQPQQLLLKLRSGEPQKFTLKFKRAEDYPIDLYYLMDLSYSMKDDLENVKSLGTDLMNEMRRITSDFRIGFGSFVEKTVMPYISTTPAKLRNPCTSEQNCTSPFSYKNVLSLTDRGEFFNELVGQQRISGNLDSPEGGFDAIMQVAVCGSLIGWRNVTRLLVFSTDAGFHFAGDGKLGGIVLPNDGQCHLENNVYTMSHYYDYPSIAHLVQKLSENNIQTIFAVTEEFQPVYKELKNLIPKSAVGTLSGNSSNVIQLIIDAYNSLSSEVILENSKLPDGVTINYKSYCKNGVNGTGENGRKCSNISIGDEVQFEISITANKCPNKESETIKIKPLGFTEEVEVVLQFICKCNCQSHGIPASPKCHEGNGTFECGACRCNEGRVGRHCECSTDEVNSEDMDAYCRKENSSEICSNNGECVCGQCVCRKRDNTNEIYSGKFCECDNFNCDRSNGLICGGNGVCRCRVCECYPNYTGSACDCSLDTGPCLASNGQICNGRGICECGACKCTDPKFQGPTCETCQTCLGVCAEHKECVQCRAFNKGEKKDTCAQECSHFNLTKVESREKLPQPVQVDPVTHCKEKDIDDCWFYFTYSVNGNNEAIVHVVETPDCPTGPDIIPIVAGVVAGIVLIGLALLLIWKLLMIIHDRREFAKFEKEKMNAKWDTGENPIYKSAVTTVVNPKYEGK

Experiment [1] deals with c-Met (hepatocyte growth factor receptor), endogenous in β1A and β1A-YYFF cells (mouse (endogenous in β1A cells)) (UniProt P16056). The experiment in a line: co-IP; β1A cells, HGF for 0 or 120 min; cell surface proteins biotinylated at 4 °C and removed by streptavidin pull-down; immunoprecipitation with c-Met B2 antibody or IgG control on the intracellular fractions; western blot. (Immunoblotting shows a protein as a band on a membrane.)

The target is the same in experiment [2]. Put plainly: co-IP; β1A (and β1A-YYFF) cells, HGF for 0 or 120 min; lysis in 0.5% Triton X-100, 20 mM Tris pH 7.5, 150 mM NaCl; immunoprecipitation with c-Met B2 antibody on protein A/G agarose beads, 4 °C; IgG and beads-only controls; western blot.

On to “β1-integrin (wild-type β1A) re-expressed in β1-integrin null GD25 cells (from UniProt P09055-1 21-798) (receptor)”, for which the binding entry in experiment [1] and in experiment [2] was “binds” in each case.

The values above are taken from publication PMC4931016.
